System: mice
Conditions: mouse, in vivo
Protocol: Physical dependency liability was evaluated in mice by the procedure of Saelens, et al., Arch. Int. Pharmacodynam, 190:213-218, 1971. In this procedure, mice are administered increasing doses of a test compound at intervals on two consecutive days. The last dosage on the second day is followed by intraperitoneal injection of the morphine antagonist, naloxone, at a dosage of 100 mg/kg, and the mice are observed for characteristic jumping behaviour indicative of opiate withdrawals or morphine antagonism. […].

CN1CC[C@]23c4c5ccc(O)c4O[C@H]2[C@@H](O)C=C[C@H]3[C@H]1C5.O=S(=O)(O)O [morphine sulfate]
mice jumping after naloxone treatment: 5 of 9
